# Assay results as given in patent publication US20240252593A1, “ASSESSING AND TREATING OBESITY” (Mayo Foundation for Medical Education and Research, priority 2021, published 2024).
# At least one compound was matched to its structure with a doubt left.
# How the values were obtained:
# [1] = system: participants with obesity (BMI≥30 kg/m^2); assay: kcal intake at ad libitum buffet meal (Example 5); assay type: in vivo, human
# [2] = system: Adults with obesity (BMI>30 kg/m^2); assay: Fasting and postprandial gastric volumes by SPECT (Example 6); assay type: in vivo, human
# [3] = system: Adults with obesity (BMI>30 kg/m^2); assay: Double-blind placebo-controlled trial of liraglutide 3 mg for 16 weeks (Example 6): body weight; assay type: in vivo, human; settings: median
# [4] = system: Adults with obesity (BMI>30 kg/m2); assay: Regression analysis of weight loss >4 kg at 16 weeks in the liraglutide trial (Example 9); assay type: in vivo, human
# [5] = system: participants with obesity (BMI≥30 kg/m^2); assay: Gastric volumes (fasting and post-300 mL Ensure) by 99mTc-SPECT (Example 5); assay type: in vivo, human
# [6] = system: Adults with obesity (BMI>30 kg/m^2); assay: Body composition by dual-energy x-ray absorptiometry (Example 6); assay type: in vivo, human; settings: ITT; median
# [7] = system: Adults with obesity (BMI>30 kg/m^2); assay: Satiety test by ad libitum meal (Example 6); assay type: in vivo, human; settings: ITT; median
# [8] = system: Adults with obesity (BMI>30 kg/m^2); assay: Gastric emptying of solids by scintigraphy (Example 6); assay type: in vivo, human; settings: ITT; median
# [9] = system: Adults with obesity (BMI>30 kg/m^2); assay: Satiation test by ingestion of Ensure: VTF, MTV and VAS symptoms (Example 6); assay type: in vivo, human; settings: ITT; median
# [10] = system: participants with obesity (BMI≥30 kg/m^2); assay: Randomized placebo-controlled trial of liraglutide (Example 5): weight and waist circumference; assay type: in vivo, human
# [11] = liraglutide >1.8 mg; mean 42.2 weeks (range 12-160 weeks); cited from earlier work
# [12] = system: participants with obesity (BMI≥30 kg/m^2); assay: GE of solids (320 kcal, 30% fat) by scintigraphy (Example 5); assay type: in vivo, human; settings: mean; for GE T1/2, Δ: change from baseline after 16 weeks
# [13] = change from baseline after 16 weeks, mean
# [14] = on treatment (Rx), 16 weeks, mean
compound,measurement,setting,value
CCCCCCCCCCCCCCCC(=O)N[C@@H](CCC(=O)NCCCC[C@H](NC(=O)[C@H](C)NC(=O)[C@H](C)NC(=O)[C@H](CCC(N)=O)NC(=O)CNC(=O)[C@H](CCC(=O)O)NC(=O)[C@H](CC(C)C)NC(=O)[C@H](Cc1ccc(O)cc1)NC(=O)[C@H](CO)NC(=O)[C@H](CO)NC(=O)[C@@H](NC(=O)[C@H](CC(=O)O)NC(=O)[C@H](CO)NC(=O)[C@@H](NC(=O)[C@H](Cc1ccccc1)NC(=O)[C@@H](NC(=O)CNC(=O)[C@H](CCC(=O)O)NC(=O)[C@H](C)NC(=O)[C@@H](N)Cc1cnc[nH]1)[C@@H](C)O)[C@@H](C)O)C(C)C)C(=O)N[C@@H](CCC(=O)O)C(=O)N[C@@H](Cc1ccccc1)C(=O)N[C@H](C(=O)N[C@@H](C)C(=O)N[C@@H](Cc1c[nH]c2ccccc12)C(=O)N[C@@H](CC(C)C)C(=O)N[C@H](C(=O)N[C@@H](CCCNC(=N)N)C(=O)NCC(=O)N[C@@H](CCCNC(=N)N)C(=O)NCC(=O)O)C(C)C)[C@@H](C)CC)C(=O)O [liraglutide],change in kCal consumed at a buffet meal,[1]; at 16 weeks,no change
same,"Buffet meal, Δ",[1]; [13],-184 kcal
same,Buffet meal,[1]; [14],736 kcal
same,numerical difference in postprandial gastric volume compared to the placebo group,"[2]; 16 weeks, p=0.14",not significant
same,Delta Gastric accomm. vol @ 16 weeks vs. baseline,"[2]; ITT, median",9.2 mL
same,Delta Gastric fasting volume @ 16 weeks vs. baseline,"[2]; ITT, median",30.0 mL
same,Gastric accommodation (accomm.) vol. @16 weeks,"[2]; ITT, median",385.4 mL
same,Gastric fasting volume @16 weeks,"[2]; ITT, median",221.2 mL
same,Gastric postprandial vol @16 weeks,"[2]; ITT, median",629.1 mL
same,Delta Weight @ 5 weeks vs. baseline,[3]; ITT,-3.8 kg
same,Delta Weight @ 16 weeks vs. baseline,[3]; ITT,-5.8 kg
same,Weight @ 5 weeks,"[3]; liraglutide 3.0 mg, ITT n = 67",100.4 kg
same,Weight @ 16 weeks,"[3]; liraglutide 3.0 mg, ITT n = 67",97.9 kg
same,Average weight loss on liraglutide,[4],5.8 kg
same,change in fasting gastric volumes compared with placebo,[5]; baseline to 16 weeks,did not induce change
same,change in gastric accommodation volumes compared with placebo,[5]; baseline to 16 weeks,did not induce change
same,"Accom. Vol, Δ",[5]; [13],32.0 mL
same,"Fasting GV, Δ",[5]; [13],35.9 mL
same,Fasting GV,[5]; [14],223.3 mL
same,16 weeks % total fat,[6],47.3%
same,16 weeks % trunk fat,[6],49.7%
same,Delta % total fat @ 16 weeks vs. baseline,[6],−2.0%
same,Delta % trunk fat @ 16 weeks vs. baseline,[6],−2.5%
same,Delta ad libitum meal total calories at 16 weeks vs. baseline,[7],-184.8 kcal
same,ad libitum meal total calories at 16 weeks,[7],647.5 kcal
same,Delta GES T25% @ 5 weeks vs. baseline,[8],44.8 min
same,GES T1/2 @ 5 weeks,[8],3.193 h
same,GES T1/2 @ 16 weeks,[8],2.573 h
same,GES T25% @ 5 weeks,[8],117.2 min
same,"GES T25%, @ 16 weeks",[8],85 min
same,"Delta, Satiation MTV (mL) @16 weeks vs. baseline",[9],-248.9 mL
same,"Delta, satiation VTF (mL), @16 weeks vs. baseline",[9],-124.4 mL
same,Satiation MTV @16 weeks,[9],974.4 mL
same,Satiation VTF @16 weeks,[9],622.1 mL
same,"Waist Circ., Δ",[10]; [13],−6.2 cm
same,"Weight, Δ",[10]; [13],-5.6 kg
same,weight lost over the 16 weeks,"[10]; liraglutide arm, Example 5",5.6 ± 5.3 kg
same,Weight,"[10]; on treatment (Rx), 16 weeks liraglutide 3 mg SQ/day, mean",97.2 kg
same,Waist Circ.,[10]; [14],108.4 cm
same,weighted mean difference in weight loss in nine clinical trials,[11],4.49 kg
same,"GE T1/2, Δ",[12],~0.617 h
same,"GE T1/2, Δ",[12]; listed as LIRAGLU,0.613 h
same,GE T1/2,"[12]; on treatment (Rx), 16 weeks",2.578 h
